# Source: PubChem BioAssay AID1159590 (NIAID, 2016)
# Purpose: 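Which core TLR signalling genes NF-kB activation by Pam3CSK4 depends on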
# Cells: mouse RAW264.7 macrophage reporter cells expressing GFP-p65 and a Tnf promoter-mCherry
# Knock-down reagent: single siRNA against mouse genes
# Time to read-out: 48 to 72 hours after siRNA transfection, then 40 minutes of ligand
# Treatment: Pam3CSK4 (TLR2/1 agonist) for 40 minutes before fixation; dose not given
# Measured: 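GFP-p65 nuclear to cytoplasmic intensity ratio from imaging, normalised per plate by median and MAD, given as robust z against negative controls, mean of replicates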
# Direction: p65 nuclear entry z-score: higher = more p65 moved into nuclei than in negative-control wells
# Rule for the call: In these data the active calls have p65 nuclear entry z-score, replicate mean at about -1.5 or lower, or at about 1.5 or higher
# Meaning of the calls: active = strong change, up or down; inactive = little change
# Shown is one part, drawn at random, of 756 reagents tested. 128 of all reagents (17%) count as active. 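Calls are two-sided: both reduced and increased p65 nuclear entry count as active.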 The numbers tell different reagents against one gene apart. Reagent sequences are not shown. Not stated in the record: the amount of reagent.
gene symbol,reagent,"p65 nuclear entry z-score, replicate mean",Call
Pik3r3,1,1.08,inactive
Pik3r3,2,0.184,inactive
Pik3r3,3,-0.766,inactive
Pik3r3,4,-1.78,active
Pik3r3,5,-1.9,active
Pik3r3,6,3.86,active
Cxcl11,1,-0.0367,inactive
Cxcl11,2,0.917,inactive
Cxcl11,3,1.02,inactive
Cxcl11,4,-0.729,inactive
Cxcl11,5,-0.192,inactive
Cxcl11,6,-0.454,inactive
Rela,1,-1.23,inactive
Rela,2,-0.305,inactive
Rela,3,-0.354,inactive
Rela,4,2.05,active
Rela,5,-1.22,inactive
Rela,6,-0.26,inactive
Map3k14,1,-1.04,inactive
Map3k14,2,1.32,inactive
Map3k14,3,-0.417,inactive
Map3k14,4,-0.876,inactive
Map3k14,5,7.47,active
Map3k14,6,3.37,active
Stat1,1,-0.316,inactive
Stat1,2,0.701,inactive
Stat1,3,-2.08,active
Stat1,4,-0.295,inactive
Stat1,5,-1.42,inactive
Stat1,6,0.367,inactive
Itgax,1,-0.0883,inactive
Itgax,2,-1.51,active
Itgax,3,-1.18,inactive
Itgax,4,0.634,inactive
Itgax,5,1.13,inactive
Itgax,6,-0.659,inactive
Tlr3,1,0.19,inactive
Tlr3,2,1.3,inactive
Tlr3,3,0.421,inactive
Tlr3,4,-0.37,inactive
Tlr3,5,-0.927,inactive
Tlr3,6,-1.11,inactive
Ly86,1,-0.421,inactive
Ly86,2,-1.47,inactive
Ly86,3,-0.129,inactive
Ly86,4,-0.188,inactive
Ly86,5,0.163,inactive
Ly86,6,-0.92,inactive
Il12b,1,0.0204,inactive
Il12b,2,1.47,inactive
Il12b,3,0.0891,inactive
Il12b,4,-0.795,inactive
Il12b,5,-1.8,active
Il12b,6,-1.41,inactive
Rac1,1,2.05,active
Rac1,2,0.461,inactive
Rac1,3,-1.49,inactive
Rac1,4,-0.799,inactive
Rac1,5,-0.599,inactive
Rac1,6,-0.626,inactive
Il1b,1,0.62,inactive
Il1b,2,0.26,inactive
Il1b,3,0.109,inactive
Il1b,4,1.47,inactive
Il1b,5,-0.688,inactive
Il1b,6,-1.3,inactive
Map2k3,1,-0.352,inactive
Map2k3,2,0.278,inactive
Map2k3,3,0.0695,inactive
Map2k3,4,2.39,active
Map2k3,5,-0.993,inactive
Map2k3,6,0.842,inactive
Ripk1,1,-0.654,inactive
Ripk1,2,0.282,inactive
Ripk1,3,0.621,inactive
Ripk1,4,-1.29,inactive
Ripk1,5,-0.0758,inactive
Ripk1,6,0.91,inactive
Ticam2,1,0.00753,inactive
Ticam2,2,0.211,inactive
Ticam2,3,-2.3,active
Ticam2,4,-0.855,inactive
Ticam2,5,-1.64,active
Ticam2,6,-0.345,inactive
Mapk8,1,0.882,inactive
Mapk8,2,-0.926,inactive
Mapk8,3,0.251,inactive
Mapk8,4,-0.354,inactive
Mapk8,5,-1.43,inactive
Mapk8,6,-1.59,active
Mapkapk2,1,-1.77,active
Mapkapk2,2,0.488,inactive
Mapkapk2,3,1.13,inactive
Mapkapk2,4,-1.34,inactive
Mapkapk2,5,0.514,inactive
Mapkapk2,6,-1.15,inactive
Elk1,1,-0.121,inactive
Elk1,2,-0.602,inactive
Elk1,3,0.902,inactive
Elk1,4,4.25,active
Elk1,5,-0.332,inactive
Elk1,6,-0.594,inactive
Sp1,1,-0.771,inactive
Sp1,2,-1.38,inactive
Sp1,3,-2.34,active
Sp1,4,-1.22,inactive
Sp1,5,2.58,active
Sp1,6,-1.23,inactive
Cyld,1,0.198,inactive
Cyld,2,-0.344,inactive
Cyld,3,0.0303,inactive
Cyld,4,-1.1,inactive
Cyld,5,-1.38,inactive
Cyld,6,-0.431,inactive
Tlr1,1,0.27,inactive
Tlr1,2,-0.457,inactive
Tlr1,3,-1.18,inactive
Tlr1,4,-0.53,inactive
Tlr1,5,0.9,inactive
Tlr1,6,-1.5,inactive
Irak1,1,-1.38,inactive
Irak1,2,0.458,inactive
Irak1,3,-1.55,active
Irak1,4,-1.15,inactive
Irak1,5,-0.499,inactive
Irak1,6,1.42,inactive
Tnfaip3,1,0.381,inactive
Tnfaip3,2,-1.65,active
Tnfaip3,3,1.48,inactive
Tnfaip3,4,0.84,inactive
Tnfaip3,5,-1.09,inactive
Tnfaip3,6,-0.749,inactive
Tollip,1,-0.0671,inactive
Tollip,2,-0.793,inactive
Tollip,3,-2.52,active
Tollip,4,-1.3,inactive
Tollip,5,-1.35,inactive
Tollip,6,0.633,inactive
Ripk3,1,-0.27,inactive
Ripk3,2,0.784,inactive
Ripk3,3,-0.465,inactive
Ripk3,4,-0.24,inactive
Ripk3,5,-0.572,inactive
Ripk3,6,2.87,active

Entries listed so far marked active (22):
gene symbol,reagent,"p65 nuclear entry z-score, replicate mean",Call
Pik3r3,4,-1.78,active
Pik3r3,5,-1.9,active
Pik3r3,6,3.86,active
Rela,4,2.05,active
Map3k14,5,7.47,active
Map3k14,6,3.37,active
Stat1,3,-2.08,active
Itgax,2,-1.51,active
Il12b,5,-1.8,active
Rac1,1,2.05,active
Map2k3,4,2.39,active
Ticam2,3,-2.3,active
Ticam2,5,-1.64,active
Mapk8,6,-1.59,active
Mapkapk2,1,-1.77,active
Elk1,4,4.25,active
Sp1,3,-2.34,active
Sp1,5,2.58,active
Irak1,3,-1.55,active
Tnfaip3,2,-1.65,active
Tollip,3,-2.52,active
Ripk3,6,2.87,active
